{"source": "PubChem BioAssay AID2685", "about": "(National Center for Advancing Translational Sciences (NCATS), 2010)", "experiment": "qHTS Assay for Lipid Storage Modulators in Drosophila S3 Cells;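 as to cell number change: cells counted by Cell Tracker Red CMTPX staining in the red channel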", "settings": "BODIPY lipid droplet fluorescence, 18-24 h; for cell number change: measured here: cell count max response, cells fed with added oleic acid", "how_it_was_run": "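Drosophila S3 cells loaded with oleic acid (400 uM, as added) and compounds at several concentrations; lipid droplets imaged by 488-nm laser-scanning cytometry, 500–530 nm intensity and object ratio to cell channel. Percent activity normalized to 20 uM Triacsin C.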", "key": {"[1]": {"settings": "measured here: cell number channel AC50, cells fed with added oleic acid"}, "[2]": {"settings": "measured here: lipid fluorescence (Fed channel) AC50, cells fed with added oleic acid"}}, "note": "This is one part of the list. Shown are side measurements of this screen, not its main read-out; they come without a call. Compounds called inactive in the main read-out are mostly missing here. Words in brackets tell the shape of the fitted curve; partial curves, single points and poor fits give uncertain potencies."}
{"molecule": "O=C(O)c1cc(NN=C2CCN(Cc3ccccc3)CC2)ccc1Cl", "values": [{"measurement": "cell number change", "value": 11.8, "unit": "%"}]}
{"molecule": "Cc1ccc(-c2csc3nc4c5ccccc5c(NCCCN(C)C)nn4c(=O)c23)cc1", "values": [{"measurement": "cell number change", "value": -30.3, "unit": "%"}, {"measurement": "AC50", "setting": "[1]", "value": "0.00517 µM [falling, full curve, poor fit]"}]}
{"molecule": "O=C(Nc1nc2ccccc2[nH]1)Nc1ccccc1F", "values": [{"measurement": "cell number change", "value": 9.66, "unit": "%"}, {"measurement": "AC50", "setting": "[2]", "value": "6.51 µM [rising, single point]"}]}
{"molecule": "Cc1ccc(OCCNC(=O)c2ccc(C)cc2)cc1", "values": [{"measurement": "cell number change", "value": 11.3, "unit": "%"}, {"measurement": "AC50", "setting": "[2]", "value": "18.4 µM [rising, single point]"}]}
{"molecule": "COc1ccc(N(C)S(=O)(=O)c2cccc(C(=O)Nc3nc4ccccc4[nH]3)c2)cc1", "values": [{"measurement": "AC50", "setting": "[2]", "value": "3.26 µM [rising, single point]"}]}
{"molecule": "N#Cc1cn(CC(=O)N2CCCC2)c2ccccc12", "values": [{"measurement": "AC50", "setting": "[1]", "value": "2.31 µM [falling, partial curve, poor fit]"}]}
{"molecule": "CCCn1c(C)cc(C(=O)COC(=O)c2ccc[nH]c2=O)c1C", "values": [{"measurement": "cell number change", "value": -5.02, "unit": "%"}, {"measurement": "AC50", "setting": "[2]", "value": "6.51 µM [falling, single point]"}]}
{"molecule": "CN(C)S(=O)(=O)N1CCC(CCCC2CCN(S(=O)(=O)N(C)C)CC2)CC1", "values": [{"measurement": "cell number change", "value": -33.7, "unit": "%"}]}
{"molecule": "Cc1ccccc1N(C(=O)Cc1cccs1)C(C(=O)NC1CCCCC1)c1cn(C)nc1C", "note": "(configuration not stated)", "values": [{"measurement": "cell number change", "value": 6.67, "unit": "%"}, {"measurement": "AC50", "setting": "[1]", "value": "4.61 µM [falling, single point]"}, {"measurement": "AC50", "setting": "[2]", "value": "23.1 µM [falling, single point]"}]}
{"molecule": "CC(C)CCNc1nc2c(c(=O)n(Cc3cccc(F)c3)c(=O)n2C)n1C", "values": [{"measurement": "cell number change", "value": 7.64, "unit": "%"}, {"measurement": "AC50", "setting": "[1]", "value": "6.51 µM [rising, single point]"}, {"measurement": "AC50", "setting": "[2]", "value": "1.03 µM [rising, partial curve]"}]}
{"molecule": "Cc1csc(NC(=O)NC2(C(F)(F)F)Oc3ccccc3O2)n1", "values": [{"measurement": "AC50", "setting": "[2]", "value": "0.092 µM [falling, full curve, poor fit]"}]}
{"molecule": "O=C(/C=C/c1ccccc1)c1ccccc1", "values": [{"measurement": "cell number change", "value": 9.27, "unit": "%"}, {"measurement": "AC50", "setting": "[2]", "value": "29.1 µM [falling, single point]"}]}
{"molecule": "Nc1cnc(CNc2ccccc2Cl)cn1", "values": [{"measurement": "cell number change", "value": 18.8, "unit": "%"}, {"measurement": "AC50", "setting": "[2]", "value": "0.00461 µM [falling, full curve, poor fit]"}]}
{"molecule": "Cc1cccc(-n2c(SCC(=O)NCC3CCCO3)nc3ccccc3c2=O)c1C", "note": "(configuration not stated)", "values": [{"measurement": "cell number change", "value": 4.6, "unit": "%"}]}
{"molecule": "O=C1/C(=C/c2ccc(O)c([N+](=O)[O-])c2)SC(=S)N1Cc1ccccc1", "values": [{"measurement": "cell number change", "value": -15.9, "unit": "%"}, {"measurement": "AC50", "setting": "[2]", "value": "0.58 µM [falling, full curve]"}]}
{"molecule": "O=C(O)CCCn1cc(NC(=O)COc2cccc(Cl)c2)cn1", "values": [{"measurement": "cell number change", "value": 1.66, "unit": "%"}, {"measurement": "AC50", "setting": "[2]", "value": "29.1 µM [rising, single point]"}]}
{"molecule": "CCCn1nnnc1SCC(=O)NCc1ccc(OC)cc1", "values": [{"measurement": "cell number change", "value": 1.55, "unit": "%"}, {"measurement": "AC50", "setting": "[2]", "value": "32.6 µM [falling, single point]"}]}
{"molecule": "Cc1ccccc1N1C(=O)c2ccccc2C1Nc1cccnc1", "note": "(configuration not stated)", "values": [{"measurement": "cell number change", "value": -16, "unit": "%"}, {"measurement": "AC50", "setting": "[2]", "value": "23.1 µM [falling, single point]"}]}
